Laboratory results taken from patent US20250304675A1 (MHS CARE INNOVATION, published 2025).
Results are given in words; binding and its absence hold for the method and conditions named. Some results given as binding are weak or reduced against the parent protein; the word gives no strength. Each block holds one binder with its values, some of them ahead of it.

By UniProt entry, the sequences of proteins in these tests, tags left out. Where a name states a change or a piece, a line headed by the entry shows the natural chain unless it says otherwise.
UniProt P09681: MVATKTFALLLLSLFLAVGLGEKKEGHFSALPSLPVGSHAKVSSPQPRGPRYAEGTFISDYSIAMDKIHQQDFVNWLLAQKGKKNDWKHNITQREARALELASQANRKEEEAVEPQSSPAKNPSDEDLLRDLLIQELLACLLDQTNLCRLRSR

Assays:
[1] = target: gastric inhibitory polypeptide (GIP), species not stated at the place of the result (Homo sapiens (Human)) (UniProt P09681); experiment: surface plasmon resonance (values not given)
[2] = target: human gastric inhibitory polypeptide (glucose-dependent insulinotropic polypeptide) (human); experiment: direct binding ELISA on coated human GIP; 8th of 10 in the printed order
[3] = target: T1, synthetic mouse GIP (1-42) (mouse); experiment: hybridoma screen as described above (GIP in suspension, ELISA on coated mouse GIP)
T1 sequence (peptide): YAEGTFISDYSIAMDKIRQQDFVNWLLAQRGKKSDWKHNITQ

binding [1]: binds | binding [2]: binds | binding [3]: binds
B1: 10g10 monoclonal antibody (original mouse mAb) (antibody, V domains shown)
VH: QVQLQESGAELVRSGASVKLSCTASGFNIRDYYLHWIKQRPEQGLEWIGWIDPENGDTEYAPKFQDKATVTADTSSNTAYLQLNSLTSEDTAVYYCNVYGIYFMDYWGQGTTVTVSS
VL: DIQLTQSPSTMAASPGEKITITCSASSSISSNSLHWYQQKPGFSPKLLIYRTSNLASGVPGRFSGSGSGTSYSLTIGTMETEDVATYYCQQGSSFPRMLTFGTGTKLEIKR
notes: Mouse hybridoma antibody; also called 10g10 mAb; 10g10 GIP mAb

binding [1]: binds
B2: LC2/HC2 humanized antibody (antibody, V domains shown)
VH: QVQLVQSGAEVKKPGATVKISCKASGFNIRDYYLHWVQQAPGKGLEWMGWIDPENGDTEYAPKFQGRVTITADTSTNTAYMELSSLRSEDTAVYYCNVYGIYFMDYWGQGTMVTVSS
VL: DIQLTQSPSSVSASVGDRVTITCRASSSISSNSLHWYQQKPGKAPKLLIYRTSNLQSGVPSRFSGSGSGTDYTLTISSLQPEDFATYYCQQGSSFPRMLTFGQGTKLEIKR
notes: CHO supernate in the ELISA; Protein A purified in the neutralization assay; also called mAbH; GIP mAbH
